Measured values from publication PMC9371855.
No constants are given. Whether binding was seen depends on the method and setting. Binding seen in cells or lysates may run through a third protein. Some results given as binding are weak or reduced against the parent protein; the word gives no strength. Values belong to the molecule of their own block, whether it stands above or below them.

Protein sequences, listed by entry. Tags and fused reporters are not part of them.
UniProt Q9Y572: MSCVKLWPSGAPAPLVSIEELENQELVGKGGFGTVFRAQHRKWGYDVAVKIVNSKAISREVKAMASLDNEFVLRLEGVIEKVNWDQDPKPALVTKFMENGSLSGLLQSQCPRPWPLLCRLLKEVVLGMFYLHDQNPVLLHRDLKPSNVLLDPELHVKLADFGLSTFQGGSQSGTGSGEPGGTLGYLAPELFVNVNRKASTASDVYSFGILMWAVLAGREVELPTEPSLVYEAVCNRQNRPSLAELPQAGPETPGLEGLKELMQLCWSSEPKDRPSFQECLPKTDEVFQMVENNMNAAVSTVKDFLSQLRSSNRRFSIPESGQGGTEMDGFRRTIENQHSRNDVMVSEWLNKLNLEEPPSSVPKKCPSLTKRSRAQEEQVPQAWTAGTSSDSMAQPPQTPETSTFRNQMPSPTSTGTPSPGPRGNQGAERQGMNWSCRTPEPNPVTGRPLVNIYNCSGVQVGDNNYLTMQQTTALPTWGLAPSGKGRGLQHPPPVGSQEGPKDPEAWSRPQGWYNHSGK

Columns and labels:
Experiment in all cases: co-IP; PC3 cells, with or without IDOAMP for 24 h, lysed in RIPA buffer; endogenous proteins precipitated with anti-Aurora kinase A or anti-RIPK1 antibody (IgG as control) and protein-A/G-agarose beads at 4°C; western blot
[1] = biological target: T1, Aurora kinase A (human (endogenous in PC3)) (UniProt O14965)
T1 sequence: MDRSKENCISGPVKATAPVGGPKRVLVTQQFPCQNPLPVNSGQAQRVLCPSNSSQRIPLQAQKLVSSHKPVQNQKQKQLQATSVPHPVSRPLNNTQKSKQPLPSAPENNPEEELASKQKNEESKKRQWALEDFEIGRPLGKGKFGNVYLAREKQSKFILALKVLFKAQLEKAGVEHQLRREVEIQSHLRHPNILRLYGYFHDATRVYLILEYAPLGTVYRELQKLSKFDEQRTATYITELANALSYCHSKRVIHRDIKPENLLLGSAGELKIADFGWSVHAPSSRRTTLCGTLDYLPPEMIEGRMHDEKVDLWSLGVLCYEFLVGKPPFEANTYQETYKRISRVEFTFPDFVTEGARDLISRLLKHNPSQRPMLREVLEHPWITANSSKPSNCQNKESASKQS

[2] = biological target: receptor-interacting serine/threonine kinase 1 (human (endogenous in PC3)) (UniProt Q13546)
[3] = biological target: T2, receptor-interacting serine/threonine kinase 1 (human (endogenous in PC3)), Q13546; conditions: remark: other sources report otherwise
T2 chain: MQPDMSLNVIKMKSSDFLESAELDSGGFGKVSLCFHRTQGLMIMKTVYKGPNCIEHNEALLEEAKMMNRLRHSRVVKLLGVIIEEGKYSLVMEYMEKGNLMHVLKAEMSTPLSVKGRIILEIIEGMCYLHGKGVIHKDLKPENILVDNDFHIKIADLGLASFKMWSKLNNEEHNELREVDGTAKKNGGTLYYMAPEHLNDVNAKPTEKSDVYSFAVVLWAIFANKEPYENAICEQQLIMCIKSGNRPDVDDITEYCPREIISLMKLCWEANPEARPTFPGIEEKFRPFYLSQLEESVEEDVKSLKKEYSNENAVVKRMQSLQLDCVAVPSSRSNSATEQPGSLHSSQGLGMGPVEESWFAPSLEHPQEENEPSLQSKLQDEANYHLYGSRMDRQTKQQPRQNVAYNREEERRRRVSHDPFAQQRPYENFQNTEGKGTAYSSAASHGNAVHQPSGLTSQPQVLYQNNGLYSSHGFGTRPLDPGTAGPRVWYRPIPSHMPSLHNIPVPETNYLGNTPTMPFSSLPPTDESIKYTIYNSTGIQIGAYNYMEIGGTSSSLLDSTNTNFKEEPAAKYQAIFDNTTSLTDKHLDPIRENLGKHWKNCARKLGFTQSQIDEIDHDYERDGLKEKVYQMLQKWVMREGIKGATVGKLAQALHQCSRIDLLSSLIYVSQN

binding [1]: binds
Molecule: receptor-interacting serine/threonine kinase 1 (from UniProt Q13546 1-671) (enzyme)

binding [2]: binds
binding [1]: binds
Molecule: receptor-interacting serine/threonine kinase 3 (from UniProt Q9Y572 1-518) (enzyme)

binding [3]: binds
B1: mixed lineage kinase domain-like, Q8NB16 1-471 (protein)
chain: MENLKHIITLGQVIHKRCEEMKYCKKQCRRLGHRVLGLIKPLEMLQDQGKRSVPSEKLTTAMNRFKAALEEANGEIEKFSNRSNICRFLTASQDKILFKDVNRKLSDVWKELSLLLQVEQRMPVSPISQGASWAQEDQQDADEDRRAFQMLRRDNEKIEASLRRLEINMKEIKETLRQYLPPKCMQEIPQEQIKEIKKEQLSGSPWILLRENEVSTLYKGEYHRAPVAIKVFKKLQAGSIAIVRQTFNKEIKTMKKFESPNILRIFGICIDETVTPPQFSIVMEYCELGTLRELLDREKDLTLGKRMVLVLGAARGLYRLHHSEAPELHGKIRSSNFLVTQGYQVKLAGFELRKTQTSMSLGTTREKTDRVKSTAYLSPQELEDVFYQYDVKSEIYSFGIVLWEIATGDIPFQGCNSEKIRKLVAVKRQQEPLGEDCPSELREIIDECRAHDPSVRPSVDEILKKLSTFSK
